PubChem BioAssay AID504764, Drosophila RNAi Screening Center | 2011

- Purpose: 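Knock-downs that raise or lower a Notch target reporter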 (primary screen)
- Cells: Drosophila Kc167 cells
- Reagent: long dsRNA against Drosophila genes
- Duration: about 5 days (4 days dsRNA, then 24 h after transfection)
- Treatment: transfection of constitutively active membrane-tethered Notch lacking the extracellular domain, read 24 h later
- Read-out: 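Firefly luciferase from an E(spl)m3 reporter with active Notch, plus control-promoter and uninduced reporter wells for normalisation; unnormalised counts, duplicate wells a and b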
- Reading the numbers: induced reporter light, run 1, well a and induced reporter light, run 1, well b: higher = more light from the Notch target reporter with active Notch; control promoter light, run 1, well a and control promoter light, run 1, well b: higher = more light from the viral control promoter (cell number, transfection, viability); uninduced reporter light, run 1, well a: higher = more light from the Notch target reporter without active Notch
- Hit rule: 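Wells with low control signal or poorly matching duplicates excluded; duplicates averaged; per source plate, z beyond ±2 for induced/control log2 ratio or beyond ±1.8 for induced/uninduced marks a hit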
- Calls: active = modifier hit (raised or lowered Notch signal); inactive = not a hit
In all, the deposit lists about 22,000 reagents; shown is a random part of those that have a named target and a result. Of all reagents, 403 (1.9%) were called active. 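Unnormalised raw counts per well; ratio z-scores behind the hit calls and whether each hit raises or lowers signal are not deposited.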 The record does not give: the amount of reagent.

Gene	amplicon	induced reporter light, run 1, well a	induced reporter light, run 1, well b	control promoter light, run 1, well a	control promoter light, run 1, well b	uninduced reporter light, run 1, well a	outcome
per (GeneID 31251)	DRSC18818	1.09e5	98835	1.52e5	1.91e5	7425	inactive
Tmem214 (GeneID 34514)	DRSC02924	1.52e5	1.66e5	66335	91460	17720	inactive
Tmem214 (GeneID 34514)	DRSC02925	1.11e5	1.27e5	75410	96350	16705	inactive
CG16898 (GeneID 37276)	DRSC06635	1.06e5	1.02e5	1.45e5	1.39e5	12635	inactive
Ctr1A (GeneID 31601)	DRSC18336	1.57e5	1.34e5	2.53e5	2.34e5	8925	inactive
CG34046 (retired record) (GeneID 3885653)	DRSC14075	73460	72185	72260	76875	7155	inactive
TwdlP (GeneID 43201)	DRSC14734	1.90e5	1.72e5	2.56e5	2.18e5	15645	inactive
boil (GeneID 31416)	DRSC17872	1.50e5	1.55e5	2.43e5	2.59e5	10215	inactive
tomboy20 (GeneID 41285)	DRSC14913	81750	65630	65145	50345	4560	inactive
CG18537 (GeneID 37094)	DRSC06764	45590	35775	51715	36735	3625	inactive
speck (GeneID 37867)	DRSC04608	1.63e5	1.53e5	1.36e5	1.39e5	13810	inactive
Vlet (GeneID 32116)	DRSC19845	1.78e5	2.08e5	2.59e5	2.18e5	14820	inactive
Lsd-2 (GeneID 32437)	DRSC20143	1.70e5	1.71e5	2.16e5	1.60e5	10628	inactive
CG7631 (GeneID 34919)	DRSC01873	1.20e5	1.46e5	1.34e5	1.42e5	10690	inactive
robo3 (GeneID 33314)	DRSC00374	1.19e5	98205	1.32e5	70165	10540	inactive
robo3 (GeneID 33314)	DRSC00375	37760	41920	25305	14385	6740	inactive
robo3 (GeneID 33314)	DRSC00684	1.07e5	1.08e5	95190	50040	10575	inactive
Lcp65APsi (GeneID 3771993)	DRSC08795	2.38e5	1.81e5	2.00e5	2.06e5	14730	inactive
Lcp65APsi (GeneID 3771993)	DRSC10342	1.93e5	1.54e5	2.22e5	2.14e5	9485	inactive
phr (GeneID 35735)	DRSC07662	2.96e5	2.35e5	3.06e5	2.76e5	27970	inactive
Mid1 (GeneID 37953)	DRSC04230	2.03e5	1.66e5	1.36e5	1.30e5	12310	inactive
Mid1 (GeneID 37953)	DRSC04231	1.96e5	1.79e5	1.58e5	1.51e5	12925	inactive
Mid1 (GeneID 37953)	DRSC04308	1.54e5	1.04e5	1.14e5	1.11e5	11580	inactive
Mid1 (GeneID 37953)	DRSC22803						active
CG18467 (GeneID 36958)	DRSC06758	1.02e5	1.02e5	1.23e5	1.29e5	9480	inactive

Next part (5 carried over from the part before).
Gene	amplicon	induced reporter light, run 1, well a	induced reporter light, run 1, well b	control promoter light, run 1, well a	control promoter light, run 1, well b	uninduced reporter light, run 1, well a	outcome
Mid1 (GeneID 37953)	DRSC04230	2.03e5	1.66e5	1.36e5	1.30e5	12310	inactive
Mid1 (GeneID 37953)	DRSC04231	1.96e5	1.79e5	1.58e5	1.51e5	12925	inactive
Mid1 (GeneID 37953)	DRSC04308	1.54e5	1.04e5	1.14e5	1.11e5	11580	inactive
Mid1 (GeneID 37953)	DRSC22803						active
CG18467 (GeneID 36958)	DRSC06758	1.02e5	1.02e5	1.23e5	1.29e5	9480	inactive
dec (GeneID 31691)	DRSC18759	1.79e5	1.72e5	2.57e5	3.28e5	12685	inactive
CG34457 (GeneID 5740661)	DRSC06924	1.01e5	87615	94230	1.28e5	10325	inactive
Alk (GeneID 53425)	DRSC05918	1.31e5	89660	98100	1.17e5	16155	inactive
Snrk (GeneID 36579)	DRSC07192	1.40e5	1.29e5	1.33e5	1.20e5	10730	inactive
CG12567 (GeneID 3355094)	DRSC20845	82675	71275	80665	79045	8430	inactive
CG3517 (GeneID 42324)	DRSC15492	1.51e5	1.69e5	1.57e5	2.08e5	14415	inactive
Ntl (GeneID 34046)	DRSC03003	1.60e5	1.72e5	2.55e5	2.55e5	12300	inactive
CG32066 (GeneID 39206)	DRSC10652	1.05e5	92615	74380	29105	10160	inactive
CG32066 (GeneID 39206)	DRSC10653	1.95e5	1.57e5	2.42e5	2.23e5	8765	inactive
CG14915 (GeneID 34536)	DRSC02399	95900	1.22e5	62860	75270	16080	inactive
Idgf4 (GeneID 31926)	DRSC18675	1.11e5	1.15e5	2.78e5	2.14e5	8530	inactive
tau (GeneID 326116)	DRSC14569	87720	71555	98585	91490	9715	inactive
Cyp304a1 (GeneID 41586)	DRSC16623	3.06e5	3.19e5	2.77e5	2.69e5	19645	inactive
RpS8 (GeneID 43532)	DRSC16318	5938	8750	15210	12945	970	inactive
FASN1 (GeneID 33524)	DRSC00268	1.36e5	1.75e5	1.51e5	1.54e5	14755	inactive
Got2 (GeneID 33373)	DRSC00643	1.96e5	2.25e5	2.02e5	2.21e5	18880	inactive
Nplp2 (GeneID 50286)	DRSC09824	1.08e5	1.14e5	1.76e5	1.61e5	7185	inactive
CG6569 (GeneID 42573)	DRSC16067	1.74e5	1.74e5	1.61e5	1.73e5	12005	inactive
Diedel3 (GeneID 50358)	DRSC19544	60350	80595	99010	90765	10890	inactive
CG9119 (GeneID 38124)	DRSC08620	1.03e5	1.17e5	1.76e5	2.42e5	10725	inactive
sog (GeneID 32498)	DRSC20379	89245	89030	89100	98065	11010	inactive
cue (GeneID 38174)	DRSC08248	81950	85440	2.37e5	2.35e5	9888	active
CG6908 (GeneID 41410)	DRSC16131	78405	77645	77310	65345	5405	inactive
Pgls (GeneID 32013)	DRSC19769	1.31e5	1.16e5	2.67e5	1.69e5	8505	inactive
CG6753 (GeneID 41557)	DRSC16108	84140	78585	94710	54775	5270	inactive
